Test results as given in PMC5454049.
Results are given in words; binding and its absence hold for the method and conditions named. Binding can be weak; no strength is given.

Biological target: OsPHO2 (Phosphate over accumulator 2) (rice (Oryza sativa L.))
Experiment: two-hybrid; Matchmaker Gold system; pGADT7-OsNLA1 in Y187 mated with pGBKT7-OsPHO2 in Y2HGold; growth on DDO/X/A and QDO/X/A plates

B1: OsNLA1 (protein, UniProt Q7XI73 1-321)
chain: MKFAKKYEKYMKGMDEELPGVGLKRLKKLLKKCRSDLQSHENDGSSAGRCPGHCSVCDGSFFPSLLNEMSAVIGCFNEKAKKLLELHLASGFKKYTMWFTSKGHKSHGALIQQGKDLVTYAIINAVAMRKILKKYDKIHYSKQGQEFKAQAQSLHIEILQSPWLCELMAFYMNLRRSKKNNGAMELFGDCSLVFDDDKPTISCNLFDSMRVDISLTCSICLDTVFDPVALSCGHIYCYLCSCSAASVTIVDGLKSAERKSKCPLCRQAGVFPNAVHLDELNMLLSYSCPEYWEKRIQMERVERVRLAKEHWESQCRAFLGM
- binding: binds
